Patent publication US6372898
These are yes or no findings as the source states them, for the method shown. In cells and extracts the contact can be indirect. Some results given as binding are weak or reduced against the parent protein; the word gives no strength.

Sequences of proteins named here, by UniProt entry; tags and fusion partners are left off. A change or cut given only in a name is not applied to a line headed by its entry.
UniProt P52333: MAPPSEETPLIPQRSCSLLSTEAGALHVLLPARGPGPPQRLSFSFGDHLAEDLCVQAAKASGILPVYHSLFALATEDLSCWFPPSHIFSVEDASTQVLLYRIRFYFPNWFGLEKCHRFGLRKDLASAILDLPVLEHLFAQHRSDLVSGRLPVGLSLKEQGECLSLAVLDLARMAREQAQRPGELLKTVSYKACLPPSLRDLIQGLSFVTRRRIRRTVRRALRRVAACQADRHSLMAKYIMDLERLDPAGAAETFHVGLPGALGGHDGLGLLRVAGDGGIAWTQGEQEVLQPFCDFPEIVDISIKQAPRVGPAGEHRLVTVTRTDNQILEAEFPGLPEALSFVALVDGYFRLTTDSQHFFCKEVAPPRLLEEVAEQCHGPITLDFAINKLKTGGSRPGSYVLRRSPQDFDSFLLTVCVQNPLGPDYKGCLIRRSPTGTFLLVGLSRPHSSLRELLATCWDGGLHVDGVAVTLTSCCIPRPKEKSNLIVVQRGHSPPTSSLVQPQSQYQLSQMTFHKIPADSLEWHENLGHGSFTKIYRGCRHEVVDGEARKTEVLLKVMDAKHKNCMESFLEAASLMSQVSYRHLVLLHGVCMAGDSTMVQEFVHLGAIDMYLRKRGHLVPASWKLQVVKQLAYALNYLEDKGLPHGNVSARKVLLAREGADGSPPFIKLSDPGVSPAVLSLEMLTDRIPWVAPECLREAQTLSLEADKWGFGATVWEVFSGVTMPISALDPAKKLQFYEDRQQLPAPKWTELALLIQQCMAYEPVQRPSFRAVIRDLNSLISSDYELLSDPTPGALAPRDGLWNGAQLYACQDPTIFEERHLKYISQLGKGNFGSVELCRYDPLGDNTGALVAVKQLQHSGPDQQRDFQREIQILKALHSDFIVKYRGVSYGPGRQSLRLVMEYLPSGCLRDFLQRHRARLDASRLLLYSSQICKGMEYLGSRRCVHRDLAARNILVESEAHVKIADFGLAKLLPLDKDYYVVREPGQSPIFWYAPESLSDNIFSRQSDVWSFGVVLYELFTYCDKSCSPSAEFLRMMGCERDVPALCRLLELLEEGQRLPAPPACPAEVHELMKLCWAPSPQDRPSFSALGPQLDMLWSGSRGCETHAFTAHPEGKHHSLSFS

Legend:
[1] = molecular target: T1, cytokine receptor common gamma chain (γc), wild type (human) (UniProt P31785); assay: co-immunoprecipitation from 293T lysates; goat anti-γc IP, blot anti-Myc 9E10
T1 sequence: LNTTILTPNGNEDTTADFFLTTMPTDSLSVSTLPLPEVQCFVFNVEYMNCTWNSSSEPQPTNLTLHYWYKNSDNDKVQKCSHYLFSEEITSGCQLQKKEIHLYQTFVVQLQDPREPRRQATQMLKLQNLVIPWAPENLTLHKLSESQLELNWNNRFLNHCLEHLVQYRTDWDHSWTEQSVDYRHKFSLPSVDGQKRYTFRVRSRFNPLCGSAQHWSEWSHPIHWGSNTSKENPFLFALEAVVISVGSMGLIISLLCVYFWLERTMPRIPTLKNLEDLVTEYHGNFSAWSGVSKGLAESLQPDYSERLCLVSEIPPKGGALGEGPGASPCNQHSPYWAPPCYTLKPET

[2] = molecular target: T1, cytokine receptor common gamma chain (γc), wild type (human); assay: co-immunoprecipitation from 293T lysates; γc precipitated, blot for the epitope-tagged Jak3 fragment
[3] = molecular target: T1, cytokine receptor common gamma chain (γc), wild type (human); assay: co-immunoprecipitation from 293T lysates

| Substance | binding [1] | binding [2] | binding [3] |
| --- | --- | --- | --- |
| Myc-tagged Jak3 fragment 1-193 (from UniProt P52333 1-193) | binds | binds |  |
| Jak3 fragment J3 1-130 (from UniProt P52333 1-130) |  | binds |  |
| Jak3 fragment J3 72-130 (from UniProt P52333 72-130) |  | binds | binds |
